The source of these data is PubChem BioAssay AID445 (National Center for Advancing Translational Sciences (NCATS), 2006).

The list shows a part of the results. These are further read-outs of the screen, such as a control signal, another cell line or another target. No call is given for them. The list favours compounds with an active or inconclusive main result. The note in brackets gives the kind of curve behind each potency; many fits are weak.

A short description of the test: IkB Signaling. As to conditions: ABC-DLBCL IkBa-CBG/CBR dual luciferase ratio (green luciferase fused to IkBa over red control in OCI-Ly3 lymphoma cells), 4 h. The method in brief:
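Luminescence ratio of IκBα-fused green versus native red beetle luciferase in OCI-Ly3 cells, 4 h post-doxycycline with compound; red signal alone, scaled from basal (0%) to zero light (-100%), flagged nonspecific or cytotoxic effects.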

Setting [1] is: measured here: control luc red channel unless noted.
Setting [2] is: measured here: IkB-luc green channel.
Where [3] appears, read: measured here: control luc red channel.

One may read the AC50 as the midpoint of the concentration-response curve, whichever way the signal moves. Take `Cc1ccc(C(CC(=O)Nc2cc(C)cc(C)c2)N2Cc3ccccc3C2=O)cc1` (stereo unspecified): the AC50 under setting [1] is 25.1 µM [falling, single point].

Turning to `Cc1cccc(NC(=O)CSc2nnc(C)c(=O)[nH]2)c1`, under setting [1], the AC50 is 10 µM [rising, partial curve, poor fit].

In the case of `N=c1c2c(-c3ccccc3)c(-c3ccccc3)n(Cc3ccco3)c2ncn1Cc1ccco1`, under setting [1], the AC50 was 3.98 µM [falling, full curve].

Turning to `CCS(=O)(=O)NCC(c1ccco1)N1CCN(c2ccc(OC)cc2)CC1` (stereo unspecified), the AC50 reads like this: under setting [2], 3.98 µM [rising, partial curve]; under setting [3], 3.98 µM [rising, partial curve].

Take `Cc1cc(/C=C\c2ccc3cc(N(C)C)ccc3[n+]2C)c(C)n1-c1ccccc1`: the AC50 under setting [1] was 12.6 µM [falling, partial curve].

On to `O=C(c1ccccc1)c1nnc(-c2ccncc2)o1`, for which, under setting [1], the AC50 was 15.8 µM [falling, partial curve].

As to `COc1ccc(S(=O)(=O)N(C)Cc2nc(-c3cccc(C)c3)no2)cc1`, under setting [1], the AC50 was 20 µM [falling, single point].

As for `CC(C)Cc1cc(C(=O)Nc2cc(Br)ccc2O)no1`, the AC50 under setting [1] was 39.8 µM [rising, single point] [measured here: IkB-luc green channel].

`O=C(CSc1nc2ccsc2c(=O)n1Cc1ccccc1F)NCc1ccccc1`: the AC50 under setting [1] was 2 µM [rising, partial curve].

For `CS(=O)(=O)c1nc(-c2cccs2)cc(C(F)(F)F)n1`, the AC50 was 6.31 µM [rising, single point] under setting [2] and 10 µM [falling, partial curve] under setting [3].

As to `CCc1ccc(NC(=O)N(Cc2ccc(C)cc2)Cc2cccn2-c2nnc(N3CCCC3=O)s2)cc1`, the AC50 under setting [1] is 5.01 µM [falling, partial curve].

As for `COC(=O)C1=C(C)N(C)C(C)=C(C(=O)OC)C1c1ccc(F)c(Br)c1`, the AC50 under setting [1] was 15.8 µM [falling, single point].

In the case of `CCc1ccc(CNC(=O)CCN2C(=O)COc3ccccc32)cc1`, the AC50 under setting [1] is 39.8 µM [falling, single point].

With `CCOC(=O)c1cc(-c2ccccc2)n(CCCC(=O)Nc2cccc(Cl)c2C)c1C`, the AC50 under setting [1] is 3.16 µM [rising, partial curve].

Consider `CSc1ccc(CCNC(=O)C(C)n2c(C)c3cnn(-c4ccccc4)c(=O)c3c2C)cc1` (stereo unspecified), for which the AC50 under setting [1] was 15.8 µM [falling, partial curve].

For `COc1cc(OC)cc(C(=O)Nc2c(C(=O)Nc3ccc(F)cc3)oc3ccccc23)c1`, the AC50 under setting [1] was 2 µM [falling, full curve].

For the molecule `Cc1ccc2c(CSc3nncs3)cc(=O)oc2c1`, the AC50 under setting [1] was 12.6 µM [falling, partial curve].

With `O=C(Cn1c(=O)n(Cc2ccccc2)c(=O)c2oc3ccccc3c21)Nc1ccc(Cl)cc1`, under setting [1], the AC50 is 3.98 µM [falling, full curve].

Turning to `CC(=O)Nc1cc(C(=O)NCc2ccc(F)cc2Cl)ccc1Sc1ccc(Cl)cc1`, the AC50 under setting [1] is 25.1 µM [falling, partial curve].

For `CCOC(=O)c1ccccc1N1C(=O)CSC1=S`, under setting [1], the AC50 is 39.8 µM [rising, single point] [measured here: IkB-luc green channel].

As for `Cc1ccc(CCNc2nc3c(S(=O)(=O)c4ccc(C)cc4)nnn3c3ccsc23)cc1`, the AC50 under setting [1] was 5.01 µM [falling, partial curve].

With `Cc1ccc(-n2ncc3c(NCCCc4ccccc4)ncnc32)cc1C`, the AC50 under setting [1] is 3.98 µM [falling, full curve].

Take `Cc1ccc(-c2c3c(=O)n(C)c(=O)n(C)c3c3c(C(F)(F)F)nc4ccccc4n23)cc1`: the AC50 under setting [1] is 20 µM [falling, single point].

For `CCOC(=O)c1[nH]c(C)c(CCC(=O)Nc2ccc(N(CC)CC)cc2C)c1C`, under setting [1], the AC50 was 1 µM [falling, partial curve, poor fit].

Take `CCOc1ccc(Cl)cc1S(=O)(=O)n1nnc2ccccc21`: under setting [1], the AC50 is 10 µM [falling, partial curve].

Turning to `COc1ccc2oc(=N)c(C(=O)Nc3ccccc3)cc2c1`, the AC50 under setting [1] is 20 µM [falling, partial curve].

For `CCOc1ccc(N(C(=O)c2ccc(C)cc2)S(=O)(=O)c2ccc3c(c2)n(C)c(=O)n3C)cc1`, the half-maximal activity concentration (AC50) under setting [1] is 0.251 µM [rising, full curve, poor fit].

In the case of `COc1cccc(NC(=O)c2ccc(S(=O)(=O)N3CCCCC3)cc2)c1`, under setting [1], the AC50 was 7.94 µM [falling, partial curve].

Take `Cc1ccc2cccc(NC(=O)c3ccc(-c4cc(Cl)ccc4Cl)o3)c2n1`: the AC50 under setting [1] was 6.31 µM [falling, partial curve, poor fit].

Consider `Cc1ccc(C)n1-c1nnc(N2CCCC(C(=O)NCc3ccc(F)cc3)C2)s1` (stereo unspecified), for which the AC50 under setting [1] was 10 µM [falling, partial curve].

In the case of `O=C(NCc1ccc(Cl)cc1)c1cc2ccccc2o1`, the AC50 under setting [1] was 25.1 µM [falling, partial curve, poor fit].

`Cc1ccc(Cl)cc1N1CCN(C(=O)Cn2cnc3nc4c(cc3c2=O)CCCC4)CC1`: under setting [1], the AC50 is 25.1 µM [falling, partial curve].

Regarding `O=C(O)CCc1ccc(-c2cccs2)n1NC(=O)c1ccc(O)cc1`, the AC50 under setting [1] is 6.31 µM [falling, partial curve].

As to `O=C(NCc1cccc(Br)c1)c1cccn1-c1nnc(N2CCCCC2)s1`, the AC50 under setting [1] is 31.6 µM [falling, single point].

With `O=C(CC(c1ccccc1)c1cc(Br)ccc1O)NCC1(c2ccccc2)CCCC1` (stereo unspecified), the AC50 under setting [1] was 3.16 µM [falling, full curve].

For the molecule `COc1ccc(CNC(=O)CCCc2cn(C)c3ccccc23)c(OC)c1`, under setting [1], the AC50 was 25.1 µM [falling, partial curve, poor fit].

For `O=C(CCN1C(=O)COc2ccccc21)NCCN1CCN(c2cccc(Cl)c2)CC1`, the AC50 under setting [1] was 39.8 µM [falling, partial curve].

`CCCc1[nH]nc2c1C(C1CCCCC1)C(C#N)=C(N)O2` (stereo unspecified): the AC50 under setting [1] is 15.8 µM [falling, partial curve].

Regarding `O=C(CSc1nnnn1C1CCCC1)Nc1cccc(NC(=O)c2ccco2)c1`, under setting [1], the AC50 was 6.31 µM [falling, partial curve].
